Results on one substance are retold here after paper PMC10470007 (The Journal of Biological Chemistry, 2023).

Sequences of proteins named here, by UniProt entry; tags and fusion partners are left off.
UniProt P35372: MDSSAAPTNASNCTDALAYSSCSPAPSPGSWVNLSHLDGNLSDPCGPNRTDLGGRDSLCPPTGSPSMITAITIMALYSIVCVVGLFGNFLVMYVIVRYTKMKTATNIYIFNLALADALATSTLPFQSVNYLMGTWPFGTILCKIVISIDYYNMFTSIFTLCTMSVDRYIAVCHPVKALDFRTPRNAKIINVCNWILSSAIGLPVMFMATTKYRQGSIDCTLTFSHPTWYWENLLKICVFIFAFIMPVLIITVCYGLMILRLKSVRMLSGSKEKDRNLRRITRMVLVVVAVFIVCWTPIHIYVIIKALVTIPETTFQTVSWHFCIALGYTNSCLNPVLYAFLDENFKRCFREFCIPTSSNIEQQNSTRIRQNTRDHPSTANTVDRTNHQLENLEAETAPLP

These are yes or no findings as the source states them, for the method shown. Some binding calls cover weakened binding; strength is not graded here.

Assay [1] addresses AT1R-TANGO (UniProt P30556). The experiment in a line: Tango (protease-dependent reporte).
Assay [2] has as its target μ-OR-TANGO (UniProt P35372). The assay is described as follows: Tango (protease-dependent reporte).

On to “β-arrestin2-TEV219 (from UniProt P32121 1-409)”, for which the binding entry in assay [1] and in assay [2] was “binds” each time.
